No constants are given. Whether binding was seen depends on the method and setting. Binding seen in cells or lysates may run through a third protein. Some entries that bind do so weakly or less than the wild type. Tags and fused reporters may be left off the sequences shown.
What was measured:
HA-tagged mGBP5 (mouse) = molecular target: T1, HA-tagged mGBP5 (mouse) (UniProt Q8CFB4); assay: co-IP
T1 sequence: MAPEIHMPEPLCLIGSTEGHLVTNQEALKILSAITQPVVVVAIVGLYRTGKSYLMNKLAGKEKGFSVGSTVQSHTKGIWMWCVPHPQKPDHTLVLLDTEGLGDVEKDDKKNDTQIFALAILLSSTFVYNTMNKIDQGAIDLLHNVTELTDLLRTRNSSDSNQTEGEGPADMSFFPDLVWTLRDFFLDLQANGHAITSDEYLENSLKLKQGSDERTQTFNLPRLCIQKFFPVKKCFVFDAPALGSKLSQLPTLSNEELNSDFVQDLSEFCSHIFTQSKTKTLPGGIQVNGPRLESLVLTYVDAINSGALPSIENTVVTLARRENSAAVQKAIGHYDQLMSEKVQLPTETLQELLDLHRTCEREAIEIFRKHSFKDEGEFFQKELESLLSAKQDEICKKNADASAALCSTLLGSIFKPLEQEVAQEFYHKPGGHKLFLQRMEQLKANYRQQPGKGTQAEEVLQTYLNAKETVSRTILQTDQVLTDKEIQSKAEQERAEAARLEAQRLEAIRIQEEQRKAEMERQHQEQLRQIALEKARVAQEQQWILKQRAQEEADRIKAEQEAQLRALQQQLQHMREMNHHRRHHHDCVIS

HA-tagged mGBP2 (mouse) = molecular target: T2, HA-tagged mGBP2 (mouse) (UniProt Q9Z0E6); assay: co-IP
T2 sequence: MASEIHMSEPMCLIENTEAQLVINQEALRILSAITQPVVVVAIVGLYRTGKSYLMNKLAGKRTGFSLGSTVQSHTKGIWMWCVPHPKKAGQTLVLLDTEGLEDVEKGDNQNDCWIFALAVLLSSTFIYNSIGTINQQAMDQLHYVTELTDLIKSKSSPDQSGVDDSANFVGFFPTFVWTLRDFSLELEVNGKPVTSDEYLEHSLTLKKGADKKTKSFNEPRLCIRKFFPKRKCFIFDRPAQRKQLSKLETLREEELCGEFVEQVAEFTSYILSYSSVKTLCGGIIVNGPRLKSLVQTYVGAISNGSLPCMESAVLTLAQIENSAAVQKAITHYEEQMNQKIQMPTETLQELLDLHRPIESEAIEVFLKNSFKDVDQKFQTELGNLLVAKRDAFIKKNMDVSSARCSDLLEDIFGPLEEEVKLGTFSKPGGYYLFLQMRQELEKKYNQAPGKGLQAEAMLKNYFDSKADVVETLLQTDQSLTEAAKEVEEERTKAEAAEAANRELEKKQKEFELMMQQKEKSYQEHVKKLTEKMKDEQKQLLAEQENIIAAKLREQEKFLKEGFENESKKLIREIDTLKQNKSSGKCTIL

B1: FLAG-tagged mGBP1 wild-type protein (murine guanylate-binding protein 1) (protein, UniProt Q01514 1-589)
chain: MASEIHMSEPMCLIENTEAQLVINQEALRILSAITQPVVVVAIVGLYRTGKSYLMNKLAGKRTGFSLGSTVQSHTKGIWMWCVPHPKKAGQTLVLLDTEGLEDVEKGDNQNDCWIFALAVLLSSTFIYNSIGTINQQAMDQLHYVTELTDLIKSKSSPDQSDVDNSANFVGFFPIFVWTLRDFSLDLEFDGESITPDEYLETSLALRKGTDENTKKFNMPRLCIRKFFPKRKCFIFDRPGDRKQLSKLEWIQEDQLNKEFVEQVAEFTSYIFSYSGVKTLSGGITVNGPRLKSLVQTYVSAICSGELPCMENAVLTLAQIENSAAVQKAITYYEEQMNQKIHMPTETLQELLDLHRTCEREAIEVFMKNSFKDVDQKFQEELGAQLEAKRDAFVKKNMDMSSAHCSDLLEGLFAHLEEEVKQGTFYKPGGYYLFLQRKQELEKKYIQTPGKGLQAEVMLRKYFESKEDLADTLLKMDQSLTEKEKQIEMERIKAEAAEAANRALAEMQKKHEMLMEQKEQSYQEHMKQLTEKMEQERKELMAEQQRIISLKLQEQERLLKQGFQNESLQLRQEIEKIKNMPPPRSCTIL
binding (HA-tagged mGBP5 (mouse)): binds | binding (HA-tagged mGBP2 (mouse)): binds

Source: PMC3169597
